From the supplement of paper PMC8728848
Some of the results follow.

What was measured:
Assay in all cases: glycan array binding signal (z-score within array); higher = stronger binding
Details in all cases: glycan notation: IUPAC condensed, linker removed
[1] = biological target: Neu5Ac(a2-3)Gal
Method in brief: (§1)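 Glycan array data were curated from 3228 arrays in the Consortium for Functional Glycomics database and kept only where the protein sequence was available. Glycan names were converted to IUPAC-condensed notation, and columns mapping to the same glycan were averaged. The binding signal is a within-array Z-score, averaged across arrays of the same protein sequence at different concentrations or buffers and across linkers. Negative Z-scores can be read as non-binding.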

[2] = biological target: Neu5Ac(a2-3)Gal(b1-3)GalNAc
Method in brief: as §1

[3] = biological target: Neu5Ac(a2-3)Gal(b1-3)GalNAc(b1-3)Gal(a1-4)Gal(b1-4)Glc
Method in brief: as §1

[4] = biological target: Neu5Ac(a2-3)Gal(b1-3)GalNAc(b1-4)Gal(b1-4)Glc
Method in brief: as §1

[5] = biological target: Neu5Ac(a2-3)Gal(b1-3)GalNAc(b1-4)[Neu5Ac(a2-3)]Gal(b1-4)Glc
Method in brief: as §1

[6] = biological target: Neu5Ac(a2-3)Gal(b1-3)GalNAc(b1-4)[Neu5Ac(a2-8)Neu5Ac(a2-3)]Gal(b1-4)Glc
Method in brief: as §1

[7] = biological target: Neu5Ac(a2-3)Gal(b1-3)GalNAc6S
Method in brief: as §1

[8] = biological target: Neu5Ac(a2-3)Gal(b1-3)GlcNAc
Method in brief: as §1

[9] = biological target: Neu5Ac(a2-3)Gal(b1-3)GlcNAc(b1-2)Man
Method in brief: as §1

[10] = biological target: Neu5Ac(a2-3)Gal(b1-3)GlcNAc(b1-2)Man(a1-3)[GlcNAc(b1-4)][Neu5Ac(a2-3)Gal(b1-3)GlcNAc(b1-2)Man(a1-6)]Man(b1-4)GlcNAc(b1-4)GlcNAc
Method in brief: as §1

[11] = biological target: Neu5Ac(a2-3)Gal(b1-3)GlcNAc(b1-2)Man(a1-3)[Neu5Ac(a2-3)Gal(b1-3)GlcNAc(b1-2)Man(a1-6)]Man(b1-4)GlcNAc(b1-4)GlcNAc
Method in brief: as §1

[12] = biological target: Neu5Ac(a2-3)Gal(b1-3)GlcNAc(b1-2)[Neu5Ac(a2-3)Gal(b1-3)GlcNAc(b1-4)]Man(a1-6)[Neu5Ac(a2-3)Gal(b1-3)GlcNAc(b1-2)Man(a1-3)]Man(b1-4)GlcNAc(b1-4)GlcNAc
Method in brief: as §1

[13] = biological target: Neu5Ac(a2-3)Gal(b1-3)GlcNAc(b1-3)Gal(b1-3)GlcNAc
Method in brief: as §1

[14] = biological target: Neu5Ac(a2-3)Gal(b1-3)GlcNAc(b1-3)Gal(b1-4)GlcNAc
Method in brief: as §1

[15] = biological target: Neu5Ac(a2-3)Gal(b1-3)GlcNAc(b1-3)GalNAc
Method in brief: as §1

[16] = biological target: Neu5Ac(a2-3)Gal(b1-3)GlcNAc(b1-6)GalNAc
Method in brief: as §1

[17] = biological target: Neu5Ac(a2-3)Gal(b1-3)GlcNAc6S
Method in brief: as §1

[18] = biological target: Neu5Ac(a2-3)Gal(b1-3)[Fuc(a1-4)]GlcNAc
Method in brief: as §1

[19] = biological target: Neu5Ac(a2-3)Gal(b1-3)[Fuc(a1-4)]GlcNAc(b1-3)Gal(b1-3)[Fuc(a1-4)]GlcNAc
Method in brief: as §1

[20] = biological target: Neu5Ac(a2-3)Gal(b1-3)[Fuc(a1-4)]GlcNAc(b1-3)Gal(b1-4)[Fuc(a1-3)]GlcNAc
Method in brief: as §1

[21] = biological target: Neu5Ac(a2-3)Gal(b1-3)[GlcNAc(b1-6)]GalNAc
Method in brief: as §1

[22] = biological target: Neu5Ac(a2-3)Gal(b1-3)[Neu5Ac(a2-6)]GalNAc
Method in brief: as §1

[23] = biological target: Neu5Ac(a2-3)Gal(b1-3)[Neu5Ac(a2-6)]GlcNAc(b1-3)[Fuc(a1-3)[Gal(b1-4)]GlcNAc(b1-6)]Gal(b1-4)Glc
Method in brief: as §1

[24] = biological target: Neu5Ac(a2-3)Gal(b1-3)]Neu5Ac(a2-3)Gal(b1-4)]GlcNAc
Method in brief: as §1

[25] = biological target: Neu5Ac(a2-3)Gal(b1-4)Glc
Method in brief: as §1

[26] = biological target: Neu5Ac(a2-3)Gal(b1-4)GlcNAc
Method in brief: as §1

[27] = biological target: Neu5Ac(a2-3)Gal(b1-4)GlcNAc(b1-2)Man
Method in brief: as §1

[28] = biological target: Neu5Ac(a2-3)Gal(b1-4)GlcNAc(b1-2)Man(a1-3)[GlcNAc(b1-4)][Neu5Ac(a2-3)Gal(b1-4)GlcNAc(b1-2)Man(a1-6)]Man(b1-4)GlcNAc(b1-4)GlcNAc
Method in brief: as §1

[29] = biological target: Neu5Ac(a2-3)Gal(b1-4)GlcNAc(b1-2)Man(a1-3)[Neu5Ac(a2-3)Gal(b1-4)GlcNAc(b1-2)Man(a1-6)]Man(b1-4)GlcNAc(b1-4)GlcNAc
Method in brief: as §1

[30] = biological target: Neu5Ac(a2-3)Gal(b1-4)GlcNAc(b1-2)Man(a1-3)[Neu5Ac(a2-3)Gal(b1-4)GlcNAc(b1-2)Man(a1-6)]Man(b1-4)GlcNAc(b1-4)[Fuc(a1-6)]GlcNAc
Method in brief: as §1

[31] = biological target: Neu5Ac(a2-3)Gal(b1-4)GlcNAc(b1-2)Man(a1-3)[Neu5Ac(a2-6)Gal(b1-4)GlcNAc(b1-2)Man(a1-6)]Man(b1-4)GlcNAc(b1-4)GlcNAc
Method in brief: as §1

[32] = biological target: Neu5Ac(a2-3)Gal(b1-4)GlcNAc(b1-2)[Neu5Ac(a2-3)Gal(b1-4)GlcNAc(b1-4)]Man(a1-3)[GlcNAc(b1-4)][Neu5Ac(a2-3)Gal(b1-4)GlcNAc(b1-2)[Neu5Ac(a2-3)Gal(b1-4)GlcNAc(b1-6)]Man(a1-6)]Man(b1-4)GlcNAc(b1-4)GlcNAc
Method in brief: as §1

[33] = biological target: Neu5Ac(a2-3)Gal(b1-4)GlcNAc(b1-2)[Neu5Ac(a2-3)Gal(b1-4)GlcNAc(b1-4)]Man(a1-3)[GlcNAc(b1-4)][Neu5Ac(a2-3)Gal(b1-4)GlcNAc(b1-4)Man(a1-6)]Man(b1-4)GlcNAc(b1-4)GlcNAc
Method in brief: as §1

[34] = biological target: Neu5Ac(a2-3)Gal(b1-4)GlcNAc(b1-2)[Neu5Ac(a2-3)Gal(b1-4)GlcNAc(b1-6)]Man(a1-6)[Neu5Ac(a2-3)Gal(b1-4)GlcNAc(b1-2)Man(a1-3)][GlcNAc(b1-4)]Man(b1-4)GlcNAc(b1-4)GlcNAc
Method in brief: as §1

[35] = biological target: Neu5Ac(a2-3)Gal(b1-4)GlcNAc(b1-3)Gal
Method in brief: as §1

[36] = biological target: Neu5Ac(a2-3)Gal(b1-4)GlcNAc(b1-3)Gal(b1-3)GlcNAc
Method in brief: as §1

[37] = biological target: Neu5Ac(a2-3)Gal(b1-4)GlcNAc(b1-3)Gal(b1-4)GlcNAc
Method in brief: as §1

B1: ERGIC1-EDTA (Homo sapiens), Q969X5 (protein)
chain: MKFLVNVALVFMVVYISYIYAAAHMHHHHHHDYDIPTTENLYFQGSEVVNELYVDDPDKDSGGKIDVSLNISLPNLHCELVGLDIQDEMGRHEVGHIDNSMKIPLNNGAGCRFEGQFSINKVPGNFHVSTHSATAQPQNPDMTHVIHKLSFGDTLQVQNIHGAFNALGGADRLTSNPLASHDYILKIVPTVYEDKSGKQRYSYQYTVANKEYVAYSHTGRIIPAIWFRYDLSPITVKYTE
[1]
  glycan array binding signal (z-score): 1.35
[2]
  glycan array binding signal (z-score): -0.178
[3]
  glycan array binding signal (z-score): 0.3
[4]
  glycan array binding signal (z-score): -0.913
[5]
  glycan array binding signal (z-score): -0.139
[6]
  glycan array binding signal (z-score): -0.443
[7]
  glycan array binding signal (z-score): -1.07
[8]
  glycan array binding signal (z-score): -0.199
[9]
  glycan array binding signal (z-score): -0.251
[10]
  glycan array binding signal (z-score): 0.192
[11]
  glycan array binding signal (z-score): 0.634
[12]
  glycan array binding signal (z-score): 0.458
[13]
  glycan array binding signal (z-score): -1.4
[14]
  glycan array binding signal (z-score): 0.249
[15]
  glycan array binding signal (z-score): 0.617
[16]
  glycan array binding signal (z-score): -0.308
[17]
  glycan array binding signal (z-score): 0.014
[18]
  glycan array binding signal (z-score): -0.492
[19]
  glycan array binding signal (z-score): -0.934
[20]
  glycan array binding signal (z-score): 0.202
[21]
  glycan array binding signal (z-score): -1.11
[22]
  glycan array binding signal (z-score): -0.09
[23]
  glycan array binding signal (z-score): 0.117
[24]
  glycan array binding signal (z-score): 0.343
[25]
  glycan array binding signal (z-score): 0.163
[26]
  glycan array binding signal (z-score): -0.75
[27]
  glycan array binding signal (z-score): 0.592
[28]
  glycan array binding signal (z-score): 0.241
[29]
  glycan array binding signal (z-score): -0.612
[30]
  glycan array binding signal (z-score): 0.181
[31]
  glycan array binding signal (z-score): -1.13
[32]
  glycan array binding signal (z-score): -0.304
[33]
  glycan array binding signal (z-score): 0.127
[34]
  glycan array binding signal (z-score): -0.63
[35]
  glycan array binding signal (z-score): -0.734
[36]
  glycan array binding signal (z-score): -0.841
[37]
  glycan array binding signal (z-score): -0.161
